Results of single-concentration screens

Amino acid sequences for entries named in this document (tags omitted).
UniProt P9WPC5, whole entry: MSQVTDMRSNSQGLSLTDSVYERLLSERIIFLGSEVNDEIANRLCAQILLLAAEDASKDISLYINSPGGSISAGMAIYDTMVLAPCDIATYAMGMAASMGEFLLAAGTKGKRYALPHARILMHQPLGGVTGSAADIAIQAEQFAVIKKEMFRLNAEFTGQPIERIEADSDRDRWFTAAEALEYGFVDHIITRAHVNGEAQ
UniProt P9WPC3, whole entry partner: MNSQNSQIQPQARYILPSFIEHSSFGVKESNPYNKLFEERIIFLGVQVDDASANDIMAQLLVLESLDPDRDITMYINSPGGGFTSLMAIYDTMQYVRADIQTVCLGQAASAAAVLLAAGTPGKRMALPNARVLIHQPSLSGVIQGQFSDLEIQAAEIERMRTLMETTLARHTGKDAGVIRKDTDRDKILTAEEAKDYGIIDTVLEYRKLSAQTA
UniProt I6X8D2, whole entry: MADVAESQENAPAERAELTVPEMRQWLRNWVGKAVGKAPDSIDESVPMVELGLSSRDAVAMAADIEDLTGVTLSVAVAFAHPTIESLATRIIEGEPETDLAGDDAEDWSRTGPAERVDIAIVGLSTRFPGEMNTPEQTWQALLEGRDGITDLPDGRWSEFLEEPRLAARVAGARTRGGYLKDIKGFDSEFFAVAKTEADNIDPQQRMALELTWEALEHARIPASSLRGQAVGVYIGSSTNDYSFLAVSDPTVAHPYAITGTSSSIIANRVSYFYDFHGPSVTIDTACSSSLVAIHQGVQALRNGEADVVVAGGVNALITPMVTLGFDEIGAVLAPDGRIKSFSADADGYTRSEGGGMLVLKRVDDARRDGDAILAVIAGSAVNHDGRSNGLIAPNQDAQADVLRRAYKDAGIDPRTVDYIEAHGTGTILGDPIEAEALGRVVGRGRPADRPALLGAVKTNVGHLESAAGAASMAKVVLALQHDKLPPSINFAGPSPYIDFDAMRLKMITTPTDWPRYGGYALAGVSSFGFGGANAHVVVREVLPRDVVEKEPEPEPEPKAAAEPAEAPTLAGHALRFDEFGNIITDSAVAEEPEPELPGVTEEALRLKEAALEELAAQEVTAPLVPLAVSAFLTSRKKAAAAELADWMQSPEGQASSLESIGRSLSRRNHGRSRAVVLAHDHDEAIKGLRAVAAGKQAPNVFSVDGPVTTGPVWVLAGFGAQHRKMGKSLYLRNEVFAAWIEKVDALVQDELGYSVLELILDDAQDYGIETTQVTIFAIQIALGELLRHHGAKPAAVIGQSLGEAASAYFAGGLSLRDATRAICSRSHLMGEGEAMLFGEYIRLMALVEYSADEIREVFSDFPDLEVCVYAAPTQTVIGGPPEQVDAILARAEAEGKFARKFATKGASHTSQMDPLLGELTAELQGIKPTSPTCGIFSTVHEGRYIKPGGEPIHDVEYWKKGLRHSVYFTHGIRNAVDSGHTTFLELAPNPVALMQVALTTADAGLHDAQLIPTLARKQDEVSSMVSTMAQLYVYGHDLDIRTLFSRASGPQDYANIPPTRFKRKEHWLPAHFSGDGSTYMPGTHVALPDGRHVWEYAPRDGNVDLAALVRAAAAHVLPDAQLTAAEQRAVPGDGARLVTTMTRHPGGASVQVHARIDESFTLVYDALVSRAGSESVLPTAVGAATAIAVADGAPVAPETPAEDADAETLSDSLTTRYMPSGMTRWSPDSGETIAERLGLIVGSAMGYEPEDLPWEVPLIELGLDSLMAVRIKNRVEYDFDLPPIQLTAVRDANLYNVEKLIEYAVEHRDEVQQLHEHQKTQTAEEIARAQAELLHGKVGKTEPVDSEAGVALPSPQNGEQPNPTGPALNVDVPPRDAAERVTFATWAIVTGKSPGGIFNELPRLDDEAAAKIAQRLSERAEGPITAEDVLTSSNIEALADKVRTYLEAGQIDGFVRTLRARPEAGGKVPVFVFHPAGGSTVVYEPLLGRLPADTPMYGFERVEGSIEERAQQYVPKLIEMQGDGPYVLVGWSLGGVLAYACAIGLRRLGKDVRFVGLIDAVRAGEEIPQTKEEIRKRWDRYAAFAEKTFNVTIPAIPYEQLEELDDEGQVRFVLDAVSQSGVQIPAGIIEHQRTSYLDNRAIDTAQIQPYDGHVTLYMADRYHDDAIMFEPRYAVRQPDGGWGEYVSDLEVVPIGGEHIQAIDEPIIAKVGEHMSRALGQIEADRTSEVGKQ

ClpP1P2: 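ClpP1P2, Mycobacterium tuberculosis (UniProt P9WPC5 and UniProt P9WPC3). Protease assay of ClpP1P2, read by the AMC dye that it sets free. Concentration: 50 µM. Direction is inferred from only a few compounds that gave an IC50; most scored high, so higher reads as stronger inhibition. Most other retested compounds had strongly negative values. About 69,000 compounds were tested under these conditions; 0.015% (about 10) showed 50% or more at least once.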
Pks13 thioesterase: 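Polyketide synthase Pks13, Mycobacterium tuberculosis (UniProt I6X8D2). Enzyme assay of the thioesterase domain of polyketide synthase 13; the read-out is not stated. Concentration: 30 µM. The record gives no direction; the compounds picked for IC50 retests had high values, so higher reads as stronger inhibition. Size under these conditions: about 67,000 compounds, about 300 of them at 50% or above in at least one test.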

Values are the deposited “Percent Effect”, in %. The record does not define 0% and 100%; most values in the screen are far below 50% and negative numbers occur (in some assays of this library far below -100). Compounds were drawn at random from those tested, without regard to their results.

With Cc1cc(N2CCCC2)nc(CNS(=O)(=O)Cc2ccccc2)n1 the screen gave ClpP1P2: -4.919%; Pks13 thioesterase: -14.47%.
With CC(NC(=O)N1CCNC(=O)CC1)c1ccc(C(F)(F)F)cc1 (stereo not given) the screen gave ClpP1P2: -9.939%; Pks13 thioesterase: -10.77%.
With Cc1ccc(NC(=O)Nc2c[nH]c(=O)[nH]c2=O)c(Cl)c1 the screen gave ClpP1P2: -9.219%; Pks13 thioesterase: 1.634%.
With N#Cc1cccnc1NCc1cccnc1N1CCCCC1 the screen gave ClpP1P2: -2.532%; Pks13 thioesterase: -74.97%.
With COCCn1cc(-c2cc(C(=O)N3CCCC3)c3ccccn23)nc1C the screen gave ClpP1P2: -32.99%; Pks13 thioesterase: 10.05%.
With CN(C)C(=O)CN1C[C@@H]2CC[C@H](C1)N(Cc1cc(F)ccc1F)C2 the screen gave ClpP1P2: 5.429%; Pks13 thioesterase: -9.627%.
With CCn1c(N)nc2cc(C(=O)NCc3cccc(C)c3C)cnc21 the screen gave ClpP1P2: 23.02%; Pks13 thioesterase: -0.2453%.
With CN(CC(=O)NCC1CCCO1)Cc1nc2c(s1)CCCC2 (stereo not given) the screen gave ClpP1P2: -14.19%; Pks13 thioesterase: -2.761%.
With CCN(CC)C(=O)c1cc(-c2cccc(Cl)c2)no1 the screen gave ClpP1P2: -2.824%; Pks13 thioesterase: -2.214%.
With Cc1cccc(-n2nc(CC(C)C)nc2CCn2ccc(=O)[nH]c2=O)c1 the screen gave ClpP1P2: 3.525%; Pks13 thioesterase: -42.17%.
With Cn1cnc(S(=O)(=O)N2CC3(CCN(CC4CC4)C3)C2)c1 the screen gave ClpP1P2: 3.62%; Pks13 thioesterase: -41.53%.
With O=c1[nH]c(COc2ccc(Cl)cc2)nc2c1CCNC2 the screen gave ClpP1P2: 11.64%; Pks13 thioesterase: -4.978%.
With CCc1noc(C(C)N2CCc3c(ncn3C3CC3)C2)n1 (stereo not given) the screen gave ClpP1P2: -30.95%; Pks13 thioesterase: 5.483%.
With CCN1CCOC(CNCc2ccc(OCc3ccccn3)cc2)C1 (stereo not given) the screen gave ClpP1P2: -17%; Pks13 thioesterase: -21.59%.
With CCc1cccc(NS(=O)(=O)c2cc(C)c(C(=O)O)s2)c1 the screen gave ClpP1P2: -1.946%; Pks13 thioesterase: 56.84%.
With CCCC1CN(CC(C)C)C(=O)c2cccnc2O1 (stereo not given) the screen gave ClpP1P2: 21.22%; Pks13 thioesterase: -47.29%.
With CC(C)(C)c1cnc(CN2CCC(c3ccnn3CCO)CC2)o1 the screen gave ClpP1P2: -1.969%; Pks13 thioesterase: -32.65%.
With O=C(NCCc1cc(F)ccc1F)NCC(O)C1CC1 (stereo not given) the screen gave ClpP1P2: 4.401%; Pks13 thioesterase: 4.902%.
With Cc1cc(Cl)c(C)c(S(=O)(=O)N2CCN(Cc3ccccn3)CC2)c1Cl the screen gave ClpP1P2: -31.14%; Pks13 thioesterase: 17.27%.
With O=C(NCCOCCO)c1cnc(-c2ccccc2)nc1O the screen gave ClpP1P2: -4.868%; Pks13 thioesterase: -17.66%.
With Cc1nc(CNc2nc3c(s2)c(C)nn3C)cs1 the screen gave ClpP1P2: -10.86%; Pks13 thioesterase: -32.58%.
With Cc1ccc(-c2noc(C3CCN3C(=O)c3cc[nH]n3)n2)s1 (stereo not given) the screen gave ClpP1P2: -6.416%; Pks13 thioesterase: 8.928%.
With Cc1cnc(N2CCC3(C2)CN(S(=O)(=O)C2CC2)C3)nc1 the screen gave ClpP1P2: 1.235%; Pks13 thioesterase: -0.5661%.
With CC(C)n1cccc1C(=O)N1CC[C@@H](NC(=O)c2ccccn2)[C@H](O)C1 the screen gave ClpP1P2: -2.662%; Pks13 thioesterase: -23.69%.
With Cc1cc(C)cc(NC(=O)N(CCC#N)CCCN(C)C)c1 the screen gave ClpP1P2: 1.169%; Pks13 thioesterase: -26.32%.
With CCC1=N[C@@]2(CC[C@@H]3CN(CC)C[C@@H]32)C(=O)N1C the screen gave ClpP1P2: -1.892%; Pks13 thioesterase: -11.11%.
With Cc1noc(C2(NC(=O)c3cccnc3O)CCCCC2)n1 the screen gave ClpP1P2: -15.98%; Pks13 thioesterase: -8.574%.

Some entries from above, unchanged:

Compound	ClpP1P2	Pks13 thioesterase
Cc1ccc(-c2noc(C3CCN3C(=O)c3cc[nH]n3)n2)s1 (stereo not given)	-6.416	8.928
CC(C)n1cccc1C(=O)N1CC[C@@H](NC(=O)c2ccccn2)[C@H](O)C1	-2.662	-23.69

Measurements from “University of Dundee, Small-Polar-MMV Screening Library” (2021), ChEMBL document CHEMBL3988442.